# Experimental data: PubChem BioAssay AID1259424 (University of Nebraska Medical Center, 2018)
# Aim: 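Rank knockdowns across the genome by resemblance to the KSR1 depletion profile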 (primary screen)
# System: human HCT116 colon cancer cells
# Knock-down reagent: siRNA pool against human genes, 50 nM
# Read-out: 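Six signature mRNAs by branched-DNA multiplex assay, scaled to two housekeeping genes and non-targeting median, log2; matched to mean KSR1 knockdown profile by Pearson correlation and euclidean distance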
# Scale: mean correlation with KSR1 profile and KSR1 correlation: higher = expression change more like KSR1 knockdown; mean distance from KSR1 profile: higher = expression change less like KSR1 knockdown
# Shown is one part, drawn at random, of about 14,000 deposited reagents. 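Higher correlation or smaller distance means closer resemblance to KSR1 loss; control wells, including KSR1 knockdowns, recur on many plates.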 A reagent listed more than once was tested more than once; the source does not tell the runs apart. Not given: the time to read-out.
gene knocked down,PubChem SID,mean correlation with KSR1 profile,mean distance from KSR1 profile,"KSR1 correlation, replicate 1","KSR1 correlation, replicate 2","KSR1 correlation, replicate 3"
ITPKA (GeneID 3706),SID363993420,0.509,3.87,0.556,0.744,0.194
MYO9B (GeneID 4650),SID363995152,-0.195,1.75,-0.177,-0.396,0.0106
SLC25A27 (GeneID 9481),SID363995272,-0.0981,2.88,-0.199,-0.182,-0.154
MYBBP1A (GeneID 10514),SID363998921,0.287,3.96,0.126,0.351,0.333
INS (GeneID 3630),SID363991542,0.505,1.21,0.614,0.448,0.422
DHX32 (GeneID 55760),SID364000851,-0.391,2.52,-0.342,-0.48,-0.215
ETF1 (GeneID 2107),SID363995689,-0.00669,2.87,0.149,0.0998,-0.0396
NAA16 (GeneID 79612),SID364001123,-0.0108,2.41,0.296,0.456,-0.467
NBEAL2 (GeneID 23218),SID364005371,-0.508,2.98,-0.448,-0.527,-0.554
CCDC92 (GeneID 80212),SID364003270,0.662,1.53,0.122,0.585,0.52
TMED9 (GeneID 54732),SID364000329,0.0383,3.67,-0.0134,0.0282,0.0923
ABRA (GeneID 137735),SID364004602,0.0919,1.66,0.0247,-0.036,0.474
ANKRD50 (GeneID 57182),SID364001610,-0.628,2.07,-0.565,-0.495,-0.597
TSPY1 (GeneID 7258),SID363994425,-0.195,1.83,-0.205,-0.171,-0.175
GYPB (GeneID 2994),SID363993307,0.344,0.993,0.213,0.182,0.117
SLC39A8 (GeneID 64116),SID364002379,0.0786,1.01,-0.272,0.109,0.327
SEC14L1 (GeneID 6397),SID363994153,-0.0317,1.75,-0.531,0.151,0.0646
CD37 (GeneID 951),SID363992993,0.0185,1.94,-0.0491,0.134,-0.227
ARF5 (GeneID 381),SID363992886,-0.0993,1.83,-0.151,-0.196,-0.285
CCSER1 (GeneID 401145),SID364005571,0.67,1.9,0.649,0.595,0.636
CELF3 (GeneID 11189),SID363997885,-0.349,4.43,-0.294,-0.296,-0.401
CACHD1 (GeneID 57685),SID364001899,0.221,0.934,-0.0195,0.574,-0.106
GSTA2 (GeneID 2939),SID363992133,-0.379,2.21,-0.515,-0.35,-0.0238
CD68 (GeneID 968),SID363992536,-0.772,2.24,-0.781,-0.892,-0.706
CARD9 (GeneID 64170),SID364002408,-0.657,3.14,-0.55,-0.827,-0.617
COPS7B (GeneID 64708),SID364002508,0.388,1.5,0.028,0.0082,0.495
HAVCR1 (GeneID 26762),SID363998139,-0.303,1.66,-0.115,-0.29,-0.811
DANCR (GeneID 57291),SID364005504,-0.678,4.12,-0.693,-0.588,-0.554
FTCD (GeneID 10841),SID363997443,-0.00651,0.936,-0.197,0.053,0.121
COMT (GeneID 1312),SID363992047,-0.233,3.55,-0.0989,-0.237,-0.486
CAPN6 (GeneID 827),SID363998722,-0.28,2.03,-0.238,-0.211,-0.306
ZNF385D (GeneID 79750),SID364002984,0.953,2.67,0.971,0.968,0.834
PSMC4 (GeneID 5704),SID363997300,-0.759,3.83,-0.589,-0.742,-0.88
GAST (GeneID 2520),SID363992095,-0.572,1.38,-0.749,-0.561,-0.402
SLC7A9 (GeneID 11136),SID363998705,-0.544,2.17,-0.33,-0.66,-0.398
RRS1 (GeneID 23212),SID363999341,0.289,3.2,0.392,0.0396,0.408
GRPEL1 (GeneID 80273),SID364003304,0.216,2.46,-0.00918,0.216,0.177
FKBP1A (GeneID 2280),SID363992091,-0.365,1.71,-0.307,-0.216,-0.685
B3GALT1 (GeneID 8708),SID364001928,0.525,4.41,0.742,0.482,0.264
ADGRG7 (GeneID 84873),SID364004172,0.403,3.04,0.691,0.328,-0.895
BAZ2B (GeneID 29994),SID363998527,0.963,0.906,0.985,0.727,0.732
SYBU (GeneID 55638),SID364000527,0.454,1.8,0.358,0.345,0.35
CRNN (GeneID 49860),SID363999938,-0.0679,2.83,-0.036,-0.0425,-0.128
RHOH (GeneID 399),SID363995302,0.798,0.823,0.758,0.897,0.637
MLF1 (GeneID 4291),SID364002432,0.509,1.7,0.423,0.373,0.547
FGD1 (GeneID 2245),SID363995445,0.0674,2.17,0.177,0.211,-0.222
FCN2 (GeneID 2220),SID363995118,0.155,2.05,0.242,0.13,0.25
LINC01558 (GeneID 26238),SID363998780,-0.556,2.01,-0.262,-0.699,-0.849
UNC45A (GeneID 55898),SID364001170,-0.375,1.76,-0.589,-0.593,-0.24
YARS2 (GeneID 51067),SID363999733,-0.165,3.16,-0.447,-0.208,-0.431
HSF1 (GeneID 3297),SID363996426,0.569,0.999,0.657,0.527,0.383
ABLIM3 (GeneID 22885),SID363999215,0.757,0.529,0.497,0.78,0.763
AK2 (GeneID 204),SID363992850,0.054,2.62,0.273,0.0899,-0.44
ZC3H4 (GeneID 23211),SID364005037,-0.118,2.72,-0.192,-0.0404,-0.0889
ZNF365 (GeneID 22891),SID364004998,-0.0526,2.05,-0.0061,-0.13,-0.0617
SLC29A3 (GeneID 55315),SID364000992,-0.514,3.04,-0.487,-0.58,-0.441
TRIP10 (GeneID 9322),SID363995239,0.129,1.64,0.297,0.157,0.0014
THSD4 (GeneID 79875),SID364003084,-0.218,2.95,-0.00925,-0.457,-0.506
KBTBD7 (GeneID 84078),SID364003795,0.661,1.73,0.653,0.51,0.616
KBTBD7 (GeneID 84078),SID364003795,0.00426,3.1,0.075,-0.273,-0.0646
JPH4 (GeneID 84502),SID364003991,0.483,1.53,0.676,0.23,0.413
DET1 (GeneID 55070),SID364000695,-0.512,2.8,-0.313,-0.573,-0.576
MYO3A (GeneID 53904),SID364000311,-0.0622,3.61,0.106,0.111,-0.223
